The values that follow come from the supplement of paper PMC10689618.

Assay [1] deals with Human fetal astrocytes. The assay can be described thus: loss of total cells relative to no-compound high-control median (toxicity); higher = more toxic (fewer cells). The settings on record: 24 h.
Assay [2] deals with Human fetal astrocytes. The assay can be described thus: synaptosome phagocytosis (pHrodo/calcein intensity ratio) relative to plate median of data wells; higher = more phagocytosis. The note with it: 24 h.

SMILES strings stand for the structures. Some of the results follow. Single values are uncertain, as repeats are few or missing.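 Labelled rat cortical synaptosomes were engulfed by primary human fetal astrocytes. Engulfment equaled a red/green ratio, corrected for calcein live-cell signal and normalized to the plate median. Compounds were toxic when calcein dropped over 30%, and reduced phagocytosis when below 70% of the median above 5 µM.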

`OCCOCCN1CCN(C2=Nc3ccccc3Sc3ccccc32)CC1`: the “loss of total cells” value in assay [1] (1.39 µM) is -37.1%; in assay [1] (2.78 µM) it was -40.5%; in assay [1] (5.56 µM) it was -5.6%; in assay [1] (11.11 µM), -2.3%; in assay [1] (22.22 µM) it was -6.5%. The synaptosome phagocytosis is 107% in assay [2] (1.39 µM); 91.9% in assay [2] (2.78 µM); 87.1% in assay [2] (5.56 µM); 106% in assay [2] (11.11 µM); 89.9% in assay [2] (22.22 µM).

In the case of `CC1=CC(=O)C2=C(C)CC[C@@H]3[C@H](OC(=O)[C@H]3C)[C@@H]12`, the “loss of total cells” value in assay [1] (1.39 µM) was -8.2%; in assay [1] (2.78 µM), -13.4%; in assay [1] (5.56 µM) it was 0.7%; in assay [1] (11.11 µM), 16.9%; in assay [1] (22.22 µM), 19.3%. Moreover, the synaptosome phagocytosis in assay [2] (1.39 µM) was 93.3%; in assay [2] (2.78 µM) it was 106%; in assay [2] (5.56 µM), 109%; in assay [2] (11.11 µM), 93.5%; in assay [2] (22.22 µM), 121%.

For the molecule `CCC1(C)OC(=O)N(C)C1=O` (stereo not given), the “loss of total cells” value in assay [1] (1.39 µM) was -24.1%; in assay [1] (2.78 µM), -24.7%; in assay [1] (5.56 µM), -7.5%; in assay [1] (11.11 µM), -22.7%; in assay [1] (22.22 µM), -0.6%. The synaptosome phagocytosis was 110% in assay [2] (1.39 µM); 107% in assay [2] (2.78 µM); 112% in assay [2] (5.56 µM); 120% in assay [2] (11.11 µM); 94.4% in assay [2] (22.22 µM).

In the case of `CC[C@H]1C(=O)OC[C@@H]1Cc1cncn1C`, the “loss of total cells” value in assay [1] (1.39 µM) was -13.9%; in assay [1] (2.78 µM), 6.9%; in assay [1] (5.56 µM) it was 12.5%; in assay [1] (11.11 µM) it was 10.1%; in assay [1] (22.22 µM), 5.2%. For the same molecule, the synaptosome phagocytosis was 124% in assay [2] (1.39 µM); 95.3% in assay [2] (2.78 µM); 113% in assay [2] (5.56 µM); 118% in assay [2] (11.11 µM); 115% in assay [2] (22.22 µM).

Turning to `CN1CCC[C@@H]1CCO[C@](C)(c1ccccc1)c1ccc(Cl)cc1`, the “loss of total cells” value in assay [1] (1.39 µM) is 8.6%; in assay [1] (2.78 µM) it was -3.7%; in assay [1] (5.56 µM), -6.3%; in assay [1] (11.11 µM), 13%; in assay [1] (22.22 µM) it was 10%. Also, the synaptosome phagocytosis was 85% in assay [2] (1.39 µM); 80.7% in assay [2] (2.78 µM); 94.5% in assay [2] (5.56 µM); 49.8% in assay [2] (11.11 µM); 37.2% in assay [2] (22.22 µM).

As to `CCC[C@H](N[C@@H](C)C(=O)N1[C@H](C(=O)O)C[C@@H]2CCCC[C@@H]21)C(=O)OCC`, the “loss of total cells” value in assay [1] (1.39 µM) is -12.9%; in assay [1] (2.78 µM) it was -13.5%; in assay [1] (5.56 µM), 13%; in assay [1] (11.11 µM), 18.7%; in assay [1] (22.22 µM), 7.8%. Moreover, the synaptosome phagocytosis in assay [2] (1.39 µM) was 111%; in assay [2] (2.78 µM), 108%; in assay [2] (5.56 µM), 124%; in assay [2] (11.11 µM), 101%; in assay [2] (22.22 µM) it was 95.7%.

For `O=C(O)c1cc(-c2ccc(F)cc2F)ccc1O`, the “loss of total cells” value in assay [1] (1.39 µM) is -3.3%; in assay [1] (2.78 µM), -14.6%; in assay [1] (5.56 µM) it was 1.4%; in assay [1] (11.11 µM) it was 2%; in assay [1] (22.22 µM) it was 17.3%. In addition, the synaptosome phagocytosis in assay [2] (1.39 µM) was 111%; in assay [2] (2.78 µM), 127%; in assay [2] (5.56 µM), 117%; in assay [2] (11.11 µM) it was 117%; in assay [2] (22.22 µM), 107%.

Turning to `Cc1cccc(C(=O)O)c1O`, the “loss of total cells” value in assay [1] (1.39 µM) is -9.7%; in assay [1] (2.78 µM), 17%; in assay [1] (5.56 µM) it was 7.2%; in assay [1] (11.11 µM), 2.1%; in assay [1] (22.22 µM), 18.9%. The synaptosome phagocytosis is 114% in assay [2] (1.39 µM); 96.8% in assay [2] (2.78 µM); 105% in assay [2] (5.56 µM); 120% in assay [2] (11.11 µM); 161% in assay [2] (22.22 µM).

`CO[C@H]1[C@H](O)[C@@H](O)[C@H](O)[C@H](O)[C@H]1O`: the “loss of total cells” value was -13.9% in assay [1] (1.39 µM); 4% in assay [1] (2.78 µM); -15.4% in assay [1] (5.56 µM); -6.8% in assay [1] (11.11 µM); -11.1% in assay [1] (22.22 µM). For the same molecule, the synaptosome phagocytosis in assay [2] (1.39 µM) was 106%; in assay [2] (2.78 µM) it was 101%; in assay [2] (5.56 µM), 88.7%; in assay [2] (11.11 µM) it was 127%; in assay [2] (22.22 µM) it was 85.5%.

Turning to `Nc1ccn([C@@H]2O[C@H](CO)[C@@H](O)[C@@H]2O)c(=O)n1`, the “loss of total cells” value in assay [1] (1.39 µM) is -0.3%; in assay [1] (2.78 µM), -3.7%; in assay [1] (5.56 µM), 0%; in assay [1] (11.11 µM), -2%; in assay [1] (22.22 µM), 45.3%. Also, the synaptosome phagocytosis in assay [2] (1.39 µM) was 128%; in assay [2] (2.78 µM) it was 131%; in assay [2] (5.56 µM), 133%; in assay [2] (11.11 µM), 98.8%; in assay [2] (22.22 µM), 97.8%.
